Assay results published in patent US6696267B2, “Methods and compositions for screening Icrac modulators” (Warner-Lambert Company, priority 2000, dated 2004).
At least one compound was matched to its structure with a doubt left.

System: NFAT-driven β-lactamase synthesis (Icrac activation) in NFAT-β-lactamase Jurkat cells
Assay: NFAT-β-lactamase gene-reporter assay in Jurkat cells (Jk-NFAT-βlac), CCF2-AM ratio 460/535
Type: cell-based
Conditions: TG 1 μM (FIG. 4)
Protocol: Jurkat cell lines (Jk-NFAT-βlac) stably transfected with plasmid containing 3×NFAT-β-lactamase reporter gene (for NFAT promoter sequence see (19)), and plasmid containing CMV-β-lactamase (Jk-CMV-βlac), where CMV is a constitutively active promoter as well as HEK cells (HEK-CRE-βlac) with 3×CRE-β-lactamase (the CRE promoter contains CRE box sequence of CGTCA (20)) were obtained from Aurora Biosciences Corp (San Diego, Calif.).
Jurkat cells were grown in RPMI 1640 medium supplemented with 10% foetal bovine serum, 2 mM L-glutamine, 1 mM NEAA, 1 mM Na pyruvate, 25 mM HEPES, pH 7.4, gentamicin 100 μg/ml. HEK-293 cells were grown in MEM glutamax, supplemented with 10% FBS, gentamycin 100 μg/ml, HEPES 20 mM. Medium for stable cell propagation contained 250 μg/ml Zeocin (Jk-NFAT-βlac) or 800 μg/ml Geneticin (Jk-CMV-βlac, HEK-CRE-βlac). […] Cells were then loaded, for 1 h in the dark at room temperature, with 12 μM CCF2-AM (13). Fluorescence was monitored with a Fluostar (BMG, Germany) fluorimeter. Excitation was at 405 nm, and emission record at 460 nm and 535 nm. The ratio (460 nm/535 nm) of fluorescence unit (F.U.) was estimated after correction for background (medium without cells). HEK-CRE-βlac were stimulated using Forskolin 10 μM in the medium mentioned above (4×10^4 cells/well). All reagents were added with the stimulator agent (e.g. TG or forskolin), unless noticed.

With COC(=O)C1=C(C)NC(C)=C(C(=O)OC)C1c1ccccc1[N+](=O)[O-] [Nifedipine] the “Effect on β-lactamase synthesis at 10 μM” value was “did not have any effect”.
